According to article PMC5052650:
No constants are given. Whether binding was seen depends on the method and setting.

Protein sequences, listed by entry. Tags and fused reporters are not part of them. Lines headed by an entry give the natural chain unless they say otherwise; changes in a name come on top. Residues count along the entry.
UniProt Q9UGN5, residues 235-579: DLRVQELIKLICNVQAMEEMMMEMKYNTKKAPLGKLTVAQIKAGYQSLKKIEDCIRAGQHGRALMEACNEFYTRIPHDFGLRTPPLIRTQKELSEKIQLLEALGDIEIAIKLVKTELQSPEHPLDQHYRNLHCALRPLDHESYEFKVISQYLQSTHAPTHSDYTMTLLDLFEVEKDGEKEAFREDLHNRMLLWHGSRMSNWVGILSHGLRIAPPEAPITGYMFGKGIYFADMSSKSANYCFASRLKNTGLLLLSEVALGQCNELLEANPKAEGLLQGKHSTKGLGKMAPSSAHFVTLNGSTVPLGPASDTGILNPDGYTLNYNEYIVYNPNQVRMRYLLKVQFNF

Target: ARTD2 catalytic fragment (human) (UniProt Q9UGN5)
Experiment: SAXS; proteins without DNA; measured without chromatography at three different concentrations; MW from Porod volume divided by 1.7; both purified

binding: no binding
Substance: ARTD2 catalytic fragment (from UniProt Q9UGN5-1 235-579) (domain or fragment)
